## Primary screen of a compound library

Sequences of proteins named here, by UniProt entry; tags and fusion partners are left off.
UniProt E9BF75, entry or part of it: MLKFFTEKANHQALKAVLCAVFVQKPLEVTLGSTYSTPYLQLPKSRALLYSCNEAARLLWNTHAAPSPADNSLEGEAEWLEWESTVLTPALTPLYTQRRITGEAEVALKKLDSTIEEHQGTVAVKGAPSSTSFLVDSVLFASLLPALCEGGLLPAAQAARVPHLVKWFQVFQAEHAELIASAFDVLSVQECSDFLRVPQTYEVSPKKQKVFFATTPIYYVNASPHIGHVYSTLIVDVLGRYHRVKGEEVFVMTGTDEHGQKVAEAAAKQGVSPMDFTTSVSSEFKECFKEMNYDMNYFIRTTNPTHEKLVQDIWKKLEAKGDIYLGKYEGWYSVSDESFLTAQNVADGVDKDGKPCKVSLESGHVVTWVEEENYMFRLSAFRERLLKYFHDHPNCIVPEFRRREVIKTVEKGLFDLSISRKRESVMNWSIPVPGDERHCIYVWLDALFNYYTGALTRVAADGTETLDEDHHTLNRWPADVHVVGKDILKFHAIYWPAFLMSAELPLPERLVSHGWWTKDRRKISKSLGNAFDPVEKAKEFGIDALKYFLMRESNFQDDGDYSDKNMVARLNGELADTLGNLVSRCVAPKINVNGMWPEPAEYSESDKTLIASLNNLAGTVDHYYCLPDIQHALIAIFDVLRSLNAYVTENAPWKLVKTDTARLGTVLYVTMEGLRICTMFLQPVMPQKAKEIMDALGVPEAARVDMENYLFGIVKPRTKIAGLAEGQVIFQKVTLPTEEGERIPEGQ

Mtb heat-shock: 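Assay on Mycobacterium tuberculosis, filed only as a heat shock assay from Cornell; the read-out is not stated. The concentration is filed as 10 mM, unlikely as a test dose, so the dose is not known. Higher reads as stronger inhibition (inferred: compounds with an IC50 in retests scored well above the rest). Of about 69,000 compounds tested this way, about 930 (1.4%) reached 50% or more in at least one test.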
LdMetRS: 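Methionyl-tRNA synthetase (putative), Leishmania donovani (UniProt E9BF75). Primary screen of methionyl-tRNA synthetase; the read-out is not stated. The test concentration is not given. The values are filed as inhibition. Size under these conditions: about 68,000 compounds, about 24 of them at 50% or above in at least one test.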
Mtb growth Cornell: 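Whole-cell assay for inhibitors of Mycobacterium tuberculosis growth, labelled Cornell in the record; the read-out is not stated. The concentration is filed as 10 mM, unlikely as a test dose, so the dose is not known. Higher means stronger inhibition (inferred from two other growth screens of the library). About 53,000 compounds were tested under these conditions; 1.7% (about 900) showed 50% or more at least once.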

All values are in %.
The controls that fix the scale are not given in the record; negative values are as filed.
This is an unselected part of the compounds tested.
A dash means the value is not listed here; it may have been measured.

SMILES	Mtb heat-shock	LdMetRS	Mtb growth Cornell
O=C(NCc1ccccc1Cn1cncn1)C1CCC1	-7.921	19.43	-6.03
C=C(C)CN(Cc1cccc(O)c1)C1CCC(O)CC1 (stereo not given)	-8.794	16.73	17.3
O=C(NC1CCN(C2CC2)CC1)N1CCN(c2cnccn2)CC1	-17.47	18.44	-
[H][C@]12CCC[C@@]1(COCC1CCOCC1)CN(C(=O)c1ncccn1)C2	-16.06	-	-27.83
CCOCc1ccc(NC(=O)NC2CCCn3nc(CC)nc32)cc1 (stereo not given)	-26.69	12.43	-
COCCN(C/C=C/c1ccccc1)Cc1ncc[nH]1	14.48	10.57	23.05
CNC(=O)COc1ccccc1CNCc1c(C)noc1C	-4.942	11.24	11.51
CCSc1nc2ccccc2c(=O)n1OCC(=O)OC	12.99	5.248	74.42
Cc1cc(CNC(=O)Cc2c(C)nc3cc(=O)[nH]n3c2C)no1	-9.363	17.37	-
CCN(C)c1cc(CNC(=O)CNC(=O)CC2CCCCC2)ccn1	-3.721	14.62	11.62
CCC(CC)CS(=O)(=O)NC(=O)C1CCC1	6.232	10.03	11.9
CN(C)CCO[C@H]1C[C@@H](O)C12CCN(c1ncccc1Cl)CC2	8.458	5.155	34.52
CCc1nc(CCNC(=O)NC2CCN(C(C)C)C2)sc1C (stereo not given)	5.406	-	-
CC(C)C(=O)N1CCCC(Cc2cccnc2)C1 (stereo not given)	-4.52	10.38	7.158
CCN(Cc1ccccc1)C1CCN(c2cc(C)nn2C)C1=O (stereo not given)	-5.71	6.597	10.67
COc1ccc(CN(C)CC2(O)CCN(C(=O)c3cccn3C)C2)cc1 (stereo not given)	-18.04	6.507	-3.512
Cc1cccc(COC2COC3(CCN(S(C)(=O)=O)CC3)C2)n1 (stereo not given)	-	14.79	-
COc1ccc(C[C@H]2CN(C3CCOCC3)CC[C@H]2OCC2CC2)cc1.O=C(O)C(F)(F)F	-9.266	-	-
Cc1cc2nc(CO[C@H]3CN(C4CCC4)C[C@H]3F)[nH]c2cc1C	16.86	9.831	-13.28
Cc1nn(C)c(N(C)C)c1CNCc1ccc(OCCN(C)C)cc1	-14.74	2.023	-8.462
COc1ccc(OCCN2CCCN(Cc3noc(C)n3)CC2)cc1	-19.64	6.286	-25.03
Cc1cc(C)c2c(N3CCN(C(=O)N(C)C)CC3)ncnc2n1	8.621	17.76	9.967
[H][C@]12CC[C@]([H])(CC(=O)NC1)N2C(=O)CCCc1ccc(Cl)cc1	-2.57	-	-
Cc1csc(CNC(=O)N(C)Cc2ccncc2)n1	-14.47	17.46	-
CC1CN(C)CCN1C(=O)c1cnc2onc(CC(C)(C)C)c2c1 (stereo not given)	9.343	9.375	12.12
Cc1cccc(OCCC(=O)N2CCCN(CC(N)=O)CC2)c1C	1.708	9.859	24.01
Cc1nnc(N2CCOC(C)(C(=O)NC3CCCC3)C2)c2ccccc12 (stereo not given)	4.8	17.46	18.3
COC(=O)c1ccc(OCCn2cnc(C#N)n2)cc1	-4.562	6.425	16.6
Cc1cc(C)n(CC2CCCN2C(=O)c2c[nH]c(=O)c(Cl)c2)n1 (stereo not given)	-2.64	17.66	-7.047
Cc1cc(F)ccc1C(=O)N1CCN(C)C2(CCC(=O)N(C)CC2)C1 (stereo not given)	1.228	6.527	-
CC(=O)N(C)CC(=O)NC(C)c1ccc(OCCC(C)C)cc1 (stereo not given)	-5.942	19.34	-
O=C(C1CCCC1)N1C[C@H]2CNC[C@H]2C1	-	9.524	-
O=C(NCC1CC1)C1CCC2(CCNCC2)C1 (stereo not given)	-1.209	6.111	-
c1nc(N2CCCC2)cnc1C1CCNCC1	-4.78	11.63	21.33
O[C@@H]1CN(Cc2ccc(F)c(F)c2)CC[C@H]1NCc1ccccn1	-	2.188	-
CO[C@@H]1CCN(Cc2ccccn2)[C@@H]2CN(Cc3ccco3)C[C@@H]21	-	8.934	-
CNCC(=O)N1CCCC1c1n[nH]cc1-c1ccccc1F.Cl (stereo not given)	-23.25	-	-2.796
O=C(O)C(F)(F)F.O=C(O)C(F)(F)F.O=C(O)C(F)(F)F.[H][C@]12CC(Cn3cccn3)N(C)[C@@]1([H])CCN(Cc1ccc(C)s1)C2 (stereo not given in full)	-14.19	-	-
Cc1ccnc(C2CCN(CCCOc3ccccc3F)C2)n1 (stereo not given)	-16.72	15.12	38.43
CCCS(=O)(=O)N1C[C@H]2C[C@H](C(=O)N(C)C)[C@@H](C1)O2	-	15.56	-
COc1ccc(N(CCC(N)=O)C(=O)CSc2ccc(Cl)cc2)cc1	-15.54	4.348	-10.58
O=C(O)C(F)(F)F.[H][C@@]12OCCN(C(=O)c3ccoc3C)[C@@]1([H])CC[C@H]2Oc1cccnc1	-24.43	-	-33.59
Cn1cnc2c1CCN(Cc1c(Cl)ccc3cccnc13)C2	-3.397	16.8	26.99
Cc1ncsc1CN1C[C@@H]2COC[C@]2(CNC(=O)c2ccco2)C1	-	15.93	-
NC(=O)c1cccc(CCNCc2cnc(C3CCC3)s2)c1	-13.96	10.22	-
O=C(O)C(F)(F)F.O=C(c1cscn1)N1CCC2(CCN(Cc3nccs3)CC2)C1	5.919	-	1.863
Cc1oc(CNC(=O)Cc2ccc3ccccc3c2)cc1C(=O)O	-9.727	7.796	27.25
O=S(=O)(CCN1CCc2c(ncn2C2CC2)C1)c1ccccc1	-13.99	18.79	-19.56
Cc1cc(NCCO)nc(N2CCC(Cc3ccccc3)CC2)c1C#N	-	23.6	-
Cc1cc(C)n(CC2CN(CCOc3cccc(F)c3)CCO2)n1 (stereo not given)	-10.4	13.39	32.89
CN(Cc1ccco1)Cc1cnc2n1CCN(S(C)(=O)=O)CC2	-	5.797	-
CN1CCN(CCCNCc2cc(O)c3cc(F)ccc3n2)CC1	-0.3108	19.78	29.01
COc1ccccc1C(C)(C)NC(=O)c1cc(NC(C)=O)ccc1F	10.4	13.84	13.56

4 of the entries, repeated:

SMILES,Mtb heat-shock,LdMetRS,Mtb growth Cornell
COc1ccccc1C(C)(C)NC(=O)c1cc(NC(C)=O)ccc1F,10.4,13.84,13.56
Cc1cc2nc(CO[C@H]3CN(C4CCC4)C[C@H]3F)[nH]c2cc1C,16.86,9.831,-13.28
CN1CCN(CCCNCc2cc(O)c3cc(F)ccc3n2)CC1,-0.3108,19.78,29.01
COc1ccc(N(CCC(N)=O)C(=O)CSc2ccc(Cl)cc2)cc1,-15.54,4.348,-10.58

Measurements from “University of Dundee, Small-Polar-MMV Screening Library” (2021), ChEMBL document CHEMBL3988442.